Data from PubChem BioAssay AID330 (DTP/NCI, 2004).
The list is a part of this screen's results and no random one: it covers a few groups of compounds. Other doses and runs of a compound may be missing. T/C is the treated group as % of the vehicle group. Some doses have a count of surviving animals in place of a T/C: the source files T/C as zero there, which appears to mark a toxic dose or a test without result, not a measured value. Counts of survivors are from the toxicity check (mostly the fifth day) where no day follows; animals may have died later. Schedule codes are those of the source, read here as Q, the interval in days (D) or hours (H), X, the number of doses. Some doses were run more than once; the values are given in rising order. Where survival is the endpoint, this PubChem deposit counts one and a half times the control or more as active, and values a quarter to a half above the control carry no call in these data; other NCI protocols may use other cut-offs. Some entries show no survivor count and are marked so; the dose need not have been tolerated.

Tested on: P388 leukemia ip, CD2F1 mice, survival T/C
Assay: NCI In Vivo Anticancer Drug Screen. Data for tumor model P388 Leukemia (intraperitoneal) in CD2F1 (CDF1) mice
Details: T/C endpoint: median survival time, higher T/C = longer survival
[1] = dose: 6.25 mg/kg/injection, schedule: Q01DX009 (ip), vehicle: saline
[2] = dose: 12.5 mg/kg/injection, schedule: Q01DX009 (ip), vehicle: saline with Tween-80
[3] = dose: 12.5 mg/kg/injection, schedule: Q01DX009 (ip), vehicle: saline
[4] = dose: 100.0 mg/kg/injection, schedule: Q01DX009 (ip), vehicle: saline with Tween-80
[5] = dose: 200.0 mg/kg/injection, schedule: Q01DX009 (ip), vehicle: saline with Tween-80
[6] = dose: 50.0 mg/kg/injection, schedule: Q01DX009 (ip), vehicle: saline with Tween-80

C[N+](CCCl)(CCCl)Cc1ccc([N+](=O)[O-])cc1
T/C (dose: 1.56 mg/kg/injection, schedule: Q01DX009 (ip), vehicle: saline): 116 % of control [survivor count not shown]
T/C (dose: 2.0 mg/kg/injection, schedule: Q04DX003 (ip), vehicle: saline): 127 % of control [survivor count not shown]
T/C (dose: 3.13 mg/kg/injection, schedule: Q01DX009 (ip), vehicle: saline with Tween-80): 120 % of control [survivor count not shown]
T/C (dose: 3.13 mg/kg/injection, schedule: Q01DX009 (ip), vehicle: saline): 126 % of control [survivor count not shown]
T/C (dose: 4.0 mg/kg/injection, schedule: Q04DX003 (ip), vehicle: saline): 136 % of control [survivor count not shown]
T/C (dose: 6.25 mg/kg/injection, schedule: Q01DX009 (ip), vehicle: saline with Tween-80): 120 % of control [survivor count not shown]
T/C [1]: 121 [survivor count not shown], 145 [survivor count not shown], 148 % of control [survivor count not shown]
T/C (dose: 8.0 mg/kg/injection, schedule: Q04DX003 (ip), vehicle: saline with Tween-80): 136 % of control [survivor count not shown]
T/C (dose: 8.0 mg/kg/injection, schedule: Q04DX003 (ip), vehicle: saline): 163 % of control [survivor count not shown]
T/C (dose: 12.0 mg/kg/injection, schedule: Q04DX003 (ip), vehicle: saline with Tween-80): 127 % of control [survivor count not shown]
T/C [2]: 91 % of control [survivor count not shown]
T/C [3]: 140 [survivor count not shown] and 167 % of control [survivor count not shown]
T/C (dose: 12.5 mg/kg/injection, schedule: Q04DX003 (ip), vehicle: saline with Tween-80): 109 % of control [survivor count not shown]
T/C (dose: 18.0 mg/kg/injection, schedule: Q04DX003 (ip), vehicle: saline with Tween-80): 140 % of control [survivor count not shown]
T/C (dose: 25.0 mg/kg/injection, schedule: Q04DX003 (ip), vehicle: saline with Tween-80): 86 % of control [survivor count not shown]

COC(=O)c1ccc(C)c(N(CCCl)CCCl)c1
T/C (dose: 25.0 mg/kg/injection, schedule: Q01DX005 (ip), vehicle: saline with Tween-80): 185 % of control
T/C (dose: 50.0 mg/kg/injection, schedule: Q01DX005 (ip), vehicle: saline with Tween-80): 280 and 303 % of control
T/C (dose: 100.0 mg/kg/injection, schedule: Q01DX005 (ip), vehicle: saline with Tween-80): 133 and 161 % of control
survivor count (dose: 200.0 mg/kg/injection, schedule: Q01DX005 (ip), vehicle: saline with Tween-80): 0 of 6 and 2 of 6

ClCCN(CCCl)c1ccc(Cl)cc1
T/C (dose: 12.5 mg/kg/injection, schedule: Q01DX009 (ip), vehicle: Klucel (hydroxypropylcellulose) (HPC)): 104 % of control [survivor count not shown]
T/C (dose: 25.0 mg/kg/injection, schedule: Q01DX009 (ip), vehicle: Klucel (hydroxypropylcellulose) (HPC)): 104 % of control [survivor count not shown]
T/C (dose: 50.0 mg/kg/injection, schedule: Q01DX009 (ip), vehicle: Klucel (hydroxypropylcellulose) (HPC)): 108 % of control [survivor count not shown]
T/C (dose: 100.0 mg/kg/injection, schedule: Q01DX009 (ip), vehicle: Klucel (hydroxypropylcellulose) (HPC)): 112 % of control [survivor count not shown]
T/C (dose: 200.0 mg/kg/injection, schedule: Q01DX009 (ip), vehicle: Klucel (hydroxypropylcellulose) (HPC)): 101 % of control [survivor count not shown]
T/C (dose: 400.0 mg/kg/injection, schedule: Q01DX009 (ip), vehicle: Klucel (hydroxypropylcellulose) (HPC)): 131 % of control [survivor count not shown]

Cc1nc(-c2ccc(N(CCCl)CCCl)cc2)cs1
T/C [4]: 122 % of control [survivor count not shown]
T/C (dose: 100.0 mg/kg/injection, schedule: Q04DX003 (ip), vehicle: saline with Tween-80): 95 % of control [survivor count not shown]
T/C [5]: 140 % of control [survivor count not shown]
T/C (dose: 200.0 mg/kg/injection, schedule: Q04DX003 (ip), vehicle: saline with Tween-80): 95 % of control [survivor count not shown]
T/C (dose: 400.0 mg/kg/injection, schedule: Q01DX009 (ip), vehicle: saline with Tween-80): 136 % of control [survivor count not shown]
T/C (dose: 400.0 mg/kg/injection, schedule: Q04DX003 (ip), vehicle: saline with Tween-80): 112 % of control [survivor count not shown]

O=Cc1ccc(N(CCCl)CCCl)cc1
T/C [6]: 100 [survivor count not shown] and 103 % of control [survivor count not shown]
T/C [4]: 120 [survivor count not shown] and 143 % of control [survivor count not shown]
T/C [5]: 156 [survivor count not shown] and 171 % of control [survivor count not shown]

COc1cc(CN(CCCl)CCBr)cc(OC)c1
T/C (dose: 0.09 mg/kg/injection, schedule: Q01DX009 (ip), vehicle: saline with Tween-80): 115 % of control [survivor count not shown]
T/C (dose: 0.18 mg/kg/injection, schedule: Q01DX009 (ip), vehicle: saline with Tween-80): 119 % of control [survivor count not shown]
T/C (dose: 0.37 mg/kg/injection, schedule: Q01DX009 (ip), vehicle: saline with Tween-80): 129 [survivor count not shown] and 134 % of control [survivor count not shown]
T/C (dose: 0.75 mg/kg/injection, schedule: Q01DX009 (ip), vehicle: saline with Tween-80): 138 % of control [survivor count not shown]
T/C (dose: 1.5 mg/kg/injection, schedule: Q01DX009 (ip), vehicle: saline with Tween-80): 152 % of control [survivor count not shown]
T/C (dose: 3.0 mg/kg/injection, schedule: Q01DX009 (ip), vehicle: saline with Tween-80): 93 % of control [survivor count not shown]

NN(CCCl)CCCl
T/C (dose: 1.25 mg/kg/injection, schedule: Q04DX003 (ip), vehicle: saline): 120 % of control [survivor count not shown]
T/C (dose: 2.5 mg/kg/injection, schedule: Q04DX003 (ip), vehicle: saline): 130 % of control [survivor count not shown]
T/C (dose: 5.0 mg/kg/injection, schedule: Q04DX003 (ip), vehicle: saline): 170 % of control [survivor count not shown]
T/C [1]: 231 % of control [survivor count not shown]
T/C (dose: 6.25 mg/kg/injection, schedule: Q04DX003 (ip), vehicle: saline): 177 % of control [survivor count not shown]
T/C [3]: 95 % of control [survivor count not shown]
T/C (dose: 12.5 mg/kg/injection, schedule: Q04DX003 (ip), vehicle: saline): 200 % of control [survivor count not shown]
T/C (dose: 25.0 mg/kg/injection, schedule: Q04DX003 (ip), vehicle: saline): 118 % of control [survivor count not shown]

Cc1cc(C)c2nc(CN(CCCl)CCCl)[nH]c2c1
T/C [2]: 154 % of control [survivor count not shown]
T/C (dose: 25.0 mg/kg/injection, schedule: Q01DX009 (ip), vehicle: saline with Tween-80): 154 % of control [survivor count not shown]
T/C (dose: 33.0 mg/kg/injection, schedule: Q04DX003 (ip), vehicle: saline with Tween-80): 177 % of control [survivor count not shown]
T/C [6]: 113 % of control [survivor count not shown]
T/C (dose: 50.0 mg/kg/injection, schedule: Q04DX003 (ip), vehicle: saline with Tween-80): 163 [survivor count not shown] and 195 % of control [survivor count not shown]
